Data from PMC3218952.
Results are given in words; binding and its absence hold for the method and conditions named. Binding seen in cells or lysates may run through a third protein. Some entries that bind do so weakly or less than the wild type.

Chains of the proteins cited; added tags and fusions are not shown.
UniProt P43268: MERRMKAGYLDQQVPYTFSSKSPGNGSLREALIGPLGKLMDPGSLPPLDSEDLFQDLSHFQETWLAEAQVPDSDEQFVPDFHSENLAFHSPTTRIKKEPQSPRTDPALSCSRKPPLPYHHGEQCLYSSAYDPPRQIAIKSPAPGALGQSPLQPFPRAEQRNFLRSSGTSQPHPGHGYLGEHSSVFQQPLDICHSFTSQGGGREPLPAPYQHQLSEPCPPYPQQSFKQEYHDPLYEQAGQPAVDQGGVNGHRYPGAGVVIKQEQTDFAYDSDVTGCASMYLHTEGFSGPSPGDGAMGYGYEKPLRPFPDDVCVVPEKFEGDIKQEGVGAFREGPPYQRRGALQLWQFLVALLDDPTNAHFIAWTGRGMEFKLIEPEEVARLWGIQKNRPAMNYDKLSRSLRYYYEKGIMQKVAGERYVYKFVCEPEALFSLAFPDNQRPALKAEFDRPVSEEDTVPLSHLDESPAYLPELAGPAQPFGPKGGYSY
UniProt P05412: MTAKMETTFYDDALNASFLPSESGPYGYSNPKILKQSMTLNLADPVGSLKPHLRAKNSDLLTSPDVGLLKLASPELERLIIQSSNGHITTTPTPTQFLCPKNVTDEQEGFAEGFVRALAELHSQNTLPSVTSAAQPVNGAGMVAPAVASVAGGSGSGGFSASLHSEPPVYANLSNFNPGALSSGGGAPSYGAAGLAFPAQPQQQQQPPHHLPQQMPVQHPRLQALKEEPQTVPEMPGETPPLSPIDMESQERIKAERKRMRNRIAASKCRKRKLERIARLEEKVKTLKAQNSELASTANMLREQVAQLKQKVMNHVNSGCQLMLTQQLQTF

Target: Polyomavirus enhancer activator 3 (PEA3/E1AF/ETV4) (UniProt P43268)
Experiment: co-IP; MDA-MB-231 cells transfected with PEA3-pcDNA3.1 for 48 h, cross-linked with 1% formaldehyde, lysed in SDS lysis buffer and sonicated; diluted lysate incubated overnight with PEA3 antibody (sc-113X) or mouse IgG, protein G-plus agarose, washed three times in PBS; Western blot for PEA3 and c-JUN

c-JUN (from UniProt P05412 1-331) was tested, and the binding was “binds”.
